# According to patent US10016515B2, “DMA, a bis-benzimidazole, confers radioprotection to the intestine via Akt/NFκB dual pathway activation” (Jawaharlal Nehru University, priority 2016, dated 2018):
# The name of at least one read-out is uncertain.
# Experiment: Tissue bio-distribution and tissue pharmacokinetics of DMA
# Assay type: in vivo, mouse
# Experimental: Tissue samples were collected from the same mice from which blood samples were collected in both doses of DMA. Lung, liver, kidney, intestine, heart, spleen, brain were dissected and rinsed with phosphate buffer saline (PBS) and dried on blotting paper. 100 mg of tissue sample was homogenized for 20 s in chilled acetronitrile and water and further 700 μl chilled acetronitrile was added. The sample was centrifuged at 14000 rpm for 10 min and clear supernatant was collected for analysis on HPLC-MS/MS system.
# A standard DMA calibration from 1-1000 ng/ml with internal standard (20 ng/ml) was quantified. Sample analysis was performed on positive ionization mode LC-MS/MS with multiple reactions monitoring (MRM, m/z Q1/Q3) of DMA (m/z 235.1/412.0, retention time (RT) 5.3 min) and internal standard (m/z 227.1/396.0, RT 6.5 min) (Agilent 6410 series). A gradient method was employed to analyze the plasma samples using mobile phase A (0.1% formic acid in water) and mobile phase B (methanol). The B % was set as 30 (0 min), 90 (10-14 min), 30 (14-24 min) with flow rate of 0.3 ml/min. An injection volume of 10 μl was used for analysis.
# Peak tissue concentration (Cmax) of DMA and time to reach the Cmax (tmax) were read directly from the raw data by visual examination of mean tissue concentration-time profile. The tissue concentration-time data following oral dose were subjected to one-, two- and three-compartmental models using WinNonlin program (version 6.3; Certara Inc, Missouri, USA) to calculate the pharmacokinetic parameters. The pharmacokinetic models were compared according to maximal correlation between observed and predicted concentration, minimal sum of squared residuals, Akaike Information Criterion (AIC) and Schwarz Bayesian Criterion (SBC). However, the tissue concentration-time data following intravenous administration were subjected to non-compartmental approach.
structure (smiles),measurement,setting,value
"COc1ccc(-c2nc3cc(-c4nc5cc(N6CCN(C)CC6)ccc5[nH]4)ccc3[nH]2)cc1OC [DMA, 5-(4-methylpiperazin-1-yl)-2-[2′-(3,4-dimethoxyphenyl)-5′-benzimidazolyl]benzimidazole]","Clearance, Lung",50 mg/kg intravenous,18.5 g/h/kg
same,"Vd/F, Kidney",100 mg/kg oral dose,33200 g/kg
same,"Vd/F, Liver",100 mg/kg oral dose,27800 g/kg
same,"Vd/F, Small Intestine",100 mg/kg oral dose,639.8 g/kg
same,"Vd/F, Spleen",100 mg/kg oral dose,71770 g/kg
